From patent publication US11446353B2, “Compositions and methods for the treatment of fungal infections” (priority 2014, dated 2022) come the findings set out here.

In this experiment the test system is Coccidioides posadasii Δcts2/Δard1/Δcts3.

Structures are written as SMILES.

For `CN[C@@H]1C[C@H]2O[C@@](C)([C@@H]1OC)n1c3ccccc3c3c4c(c5c6ccccc6n2c5c31)C(=O)NC4` [staurosporine], the “IC50 values over the course of the experiment” value is on record as “remained generally consistent”.
